# Results taken from US20230143752A1, “CANNABIDIOL NANODRUG FORMULATIONS AND METHODS FOR USE OF THE SAME” (priority 2020, published 2023).
# At least one compound was matched to its structure with a doubt left.
# Test system: mice with Auto-Immune Alopecia
# Assay: Hair regrowth in alopecia mice, topical treatment daily for 12 weeks
# Assay type: in vivo
# Description: An animal study was carried out to determine the effect of a CBD nanoparticulate formulation comprising minoxidil as described herein on the induction of hair regrowth in alopecia mice after 12 weeks. In order to collect preliminary information on the reversal of Alopecia by CBD/minoxidil, a randomized pilot study on 24 animals was performed.
# Eight- to ten-month-old mice with Auto-Immune Alopecia were randomized into four groups (six animals per group), receiving topical treatments daily for 12 weeks. Group 1 (Control group) received 0.1 ml of control solution applied topically over the ventral area daily for 12 weeks. Group 2 (CBD group) received 20 μg of CBD in 0.1 ml of control solution applied topically over the ventral area daily for 12 weeks. Group 3 (minoxidil) received 0.1 ml of 5% minoxidil solution applied topically over the ventral area daily for 12 weeks. Group 4 (CBD/minoxidil) received 20 μg of CBD and 5% minoxidil in 0.1 ml solution applied topically over the ventral area daily for 12 weeks.
# Mice were sacrificed at the end point of a twelve week observation period, and skin biopsies were obtained. Skin biopsies were processed for histopathology.
# Reported categories are as follows: 0=no hair growth, 1=0-25% hair regrowth, 2=25-50% hair regrowth, 3=50-75% hair regrowth, 4=75-100% hair regrowth.
compound,measurement,setting,value
"Nc1cc(N2CCCCC2)nc(N)[n+]1[O-] [Minoxidil, minoxidil]","hair regrowth, summary",12 weeks topical,"none of the control (vehicle), CBD alone, or minoxidil alone mice showed significant hair regrowth"
same,histopathology finding in skin biopsies,"after 12 weeks, FIG. 6",miniaturization
